Laboratory results: patent US10525115B2 (Immatics Biotechnologies GmbH, priority 2014, dated 2020)

How the values were obtained:
Design in all cases: species or system human
[1] = tested on: primary AML samples; assay: HLA class I ligandome analysis (W6/32 immunoaffinity purification, LC-MS/MS) of primary AML samples; conditions: for Number of positive AMLs: HLA class I ligandome, 15 AML samples
[2] = tested on: cancer tissues in comparison to non-cancerous tissues and organs; assay: Presentation profile / over-presentation by label-free LC-MS (XPRESIDENT), tumor versus normal tissues, other proliferative diseases; conditions: other proliferative diseases / organs (other than AML) that over- or exclusively present the peptide; Table 5
[3] = tested on: PBMC of healthy donors; assay: HLA class I ligandome analysis (LC-MS/MS) of healthy donor PBMC; conditions: HLA class I ligandome, 30 PBMC samples; first figure of the cell
[4] = tested on: BMNC of healthy donors; assay: HLA class I ligandome analysis (LC-MS/MS) of healthy donor BMNC; conditions: HLA class I ligandome, 5 BMNC samples; second figure of the cell

## 418 (NVFTNAFRY; listed as Homo sapiens) [compound 418]
[1]
  Number of positive AMLs: 1
[2]
  Proliferative disease and location thereof: spleen, chronic myeloid leukemia
[3]
  Number of positive healthy donors (PBMC): 0/0
[4]
  Number of positive healthy donors (BMNC): 0/0

## 414 (IVRFPTDQL; listed as Homo sapiens) [compound 414]
[1]
  Number of positive AMLs: 1
[2]
  Proliferative disease and location thereof: spleen, chronic myeloid leukemia
[3]
  Number of positive healthy donors (PBMC): 0
[4]
  Number of positive healthy donors (BMNC): 1

## 408 (EEAKQLVDKAY; listed as Homo sapiens) [compound 408]
[1]
  Number of positive AMLs: 1
[2]
  Proliferative disease and location thereof: spleen, chronic myeloid leukemia
[3]
  Number of positive healthy donors (PBMC): 0/0
[4]
  Number of positive healthy donors (BMNC): 0/0

## 352 (EHSIATLLL; listed as Homo sapiens) [compound 352]
[1]
  Number of positive AMLs: 2
[2]
  Proliferative disease and location thereof: colon or rectum, uterine cervix, squamous cell carcinoma
[3]
  Number of positive healthy donors (PBMC): 1
[4]
  Number of positive healthy donors (BMNC): 0

## 433 (LSAGKTSFSF; listed as Homo sapiens) [compound 433]
[1]
  Number of positive AMLs: 1
[2]
  Proliferative disease and location thereof: stomach, metastatic, ovary, granulosa cell tumor
[3]
  Number of positive healthy donors (PBMC): 0/0
[4]
  Number of positive healthy donors (BMNC): 0/0

## 374 (VASTPISQR; listed as Homo sapiens) [compound 374]
[1]
  Number of positive AMLs: 0
[2]
  Proliferative disease and location thereof: colon or rectum, rectum, adenocarcinoma
[3]
  Number of positive healthy donors (PBMC): 0
[4]
  Number of positive healthy donors (BMNC): 1

## 330 (MSVQPTVSL; listed as Homo sapiens) [compound 330]
[1]
  Number of positive AMLs: 1
[2]
  Proliferative disease and location thereof: stomach, adenocarcinoma, lymph node, non- Hodgkin's lymphoma
[3]
  Number of positive healthy donors (PBMC): 0/0
[4]
  Number of positive healthy donors (BMNC): 0/0

## 336 (YEGSPIKV; listed as Homo sapiens) [compound 336]
[1]
  Number of positive AMLs: 1
[2]
  Proliferative disease and location thereof: stomach, adenocarcinoma, colon, non-Hodgkin's; lymphoma
[3]
  Number of positive healthy donors (PBMC): 0/0
[4]
  Number of positive healthy donors (BMNC): 0/0

## 346 (GRIVAFFEF; listed as Homo sapiens) [compound 346]
[1]
  Number of positive AMLs: 1
[2]
  Proliferative disease and location thereof: kidney, clear cell renal cell carcinoma, thyroid; gland, nodular hyperplasia
[3]
  Number of positive healthy donors (PBMC): 0/0
[4]
  Number of positive healthy donors (BMNC): 0/0

## 377 (SVAQVFLNNY; listed as Homo sapiens) [compound 377]
[1]
  Number of positive AMLs: 0
[2]
  Proliferative disease and location thereof: spleen, extramedullary hematopoiesis
[3]
  Number of positive healthy donors (PBMC): 0
[4]
  Number of positive healthy donors (BMNC): 1

## 342 (LPKKPSKLEL; listed as Homo sapiens) [compound 342]
[1]
  Number of positive AMLs: 1
[2]
  Proliferative disease and location thereof: lung, non-small cell lung carcinoma, schwannoma
[3]
  Number of positive healthy donors (PBMC): 1
[4]
  Number of positive healthy donors (BMNC): 0

## 379 (KDITMKNLV; listed as Homo sapiens) [compound 379]
[1]
  Number of positive AMLs: 0
[2]
  Proliferative disease and location thereof: kidney, clear cell renal cell carcinoma, colon, non- Hodgkin's lymphoma
[3]
  Number of positive healthy donors (PBMC): 1
[4]
  Number of positive healthy donors (BMNC): 0

## 403 (TTQGQDVTLA; listed as Homo sapiens) [compound 403]
[1]
  Number of positive AMLs: 0
[2]
  Proliferative disease and location thereof: stomach, adenocarcinoma, lung, adenocarcinoma
[3]
  Number of positive healthy donors (PBMC): 1
[4]
  Number of positive healthy donors (BMNC): 0

## 436 (VDVEQHTL; listed as Homo sapiens) [compound 436]
[1]
  Number of positive AMLs: 1
[2]
  Proliferative disease and location thereof: colon or rectum, colon, adenocarcinoma
[3]
  Number of positive healthy donors (PBMC): 0/0
[4]
  Number of positive healthy donors (BMNC): 0/0

## 432 (IAFFDVRTF; listed as Homo sapiens) [compound 432]
[1]
  Number of positive AMLs: 1
[2]
  Proliferative disease and location thereof: stomach, metastatic, ovary, granulosa cell tumor
[3]
  Number of positive healthy donors (PBMC): 0/0
[4]
  Number of positive healthy donors (BMNC): 0/0

## 402 (LEADPFLKY; listed as Homo sapiens) [compound 402]
[1]
  Number of positive AMLs: 1
[1]; versus PBMC and BMNC of healthy donors
  AML-exclusivity with regard to HLA presentation: AML-exclusivity
[2]
  Proliferative disease and location thereof: lung, non-small cell lung carcinoma, omentum, adenocarcinoma
[3]
  Number of positive healthy donors (PBMC): 0/0
[4]
  Number of positive healthy donors (BMNC): 0/0
